At least one compound was matched to its structure with a doubt left. Marks after values point to notes of the source that are not given here.
System: φX174 RFI (Form I) double stranded DNA
Experiment: DNA cleavage of supercoiled φX174 RFI (Form I) DNA, agarose gel electrophoresis and densitometry
Type: biochemical
Conditions: 37° C., TEA buffer pH 8.5, 20% DMSO
Method: DNA cleavage studies on the compounds of this invention were performed by using supercoiled, covalently closed, circular φX174 RFI (Form I) double stranded DNA. Thus, a 54.3 μM/bp (micromolar per base pair) solution of φX174 RFI DNA and a compound in the indicated concentration in TEA buffer (pH 8.5) containing 20% DMSO was incubated at 37° C. for 48-72 hours and analyzed by 1% agarose gel electrophoresis to separate the various forms of DNA. DNA cleavage was indicated by the formation of nicked relaxed circular DNA (Form II) or linearized DNA (Form III), which was visualized using ethidium bromide stain. A photo picture of the gel was taken over a 365 nanometer ultra-violet light transilluminator and the relative densities of DNA bands were quantitated by a GS-700 imaging densitometer (BIO-RAD). The percentage of net DNA cleavage was calculated by the following equation:
Net DNA Cleavage (%)={[(Form II)s+2×(Form III)s]/[(Form I)s+(Form II)s+2×(Form III)s]×100}−{(Form II)c/[(Form I)c+(Form II)c]×100}
wherein the subscripts “s” and “c” refer to as the samples and controls, respectively.

Row | SMILES | net DNA cut (%) (At 5 μM) | net DNA cut (%) (At 100 μM)
1 | CCC(=O)OC1C#CCCCCC#C/C1=C\c1cccc2ccccc12 (centres unmarked) [Compound 36, (E)-4-(1′-Naphthylmethylidene)-3-(propanoyloxy)cyclodeca-1,5-diyne] | 34.0[d] % | 
2 | COCC(=O)OC(/C1=C/C#CCCCCC#C1)c1ccccc1CO (centres unmarked) [Compound 48] |  | 13.6[c] %

Reference: patent US6391916B1, “Enediyne derivatives” (The Hong Kong University of Science and Technology, priority 2000, dated 2002)
